Data on 3 molecules can be found in PMC7382273, “Rubisco accumulation factor 1 (Raf1) plays essential roles in mediating Rubisco assembly and carboxysome biogenesis” (Proceedings of the National Academy of Sciences of the …, 2020).

Results are given in words; binding and its absence hold for the method and conditions named. Some binding calls cover weakened binding; strength is not graded here.

In test [1] the target is Rubisco large subunit RbcL, endogenous in Synechococcus elongatus PCC7942 (Synechococcus elongatus PCC7942 (endogenous in Syn7942 cells)) (UniProt Q31NB3). As to the kind of experiment: native gel or EMSA; BN-PAGE (3 to 12% Bis-Tris NativePAGE) of 20 µg soluble protein from Syn7942 WT and Δraf1 cells, immunoblot with anti-RbcL antibody. In general terms: In EMSA bound probe runs differently from free probe, usually more slowly.

Test [2] deals with T1, Rubisco large subunit RbcL (Synechococcus elongatus PCC7942), recombinant, in the RbcL-Raf1 supercomplex (Synechococcus elongatus PCC7942), Q31NB3.
T1 chain: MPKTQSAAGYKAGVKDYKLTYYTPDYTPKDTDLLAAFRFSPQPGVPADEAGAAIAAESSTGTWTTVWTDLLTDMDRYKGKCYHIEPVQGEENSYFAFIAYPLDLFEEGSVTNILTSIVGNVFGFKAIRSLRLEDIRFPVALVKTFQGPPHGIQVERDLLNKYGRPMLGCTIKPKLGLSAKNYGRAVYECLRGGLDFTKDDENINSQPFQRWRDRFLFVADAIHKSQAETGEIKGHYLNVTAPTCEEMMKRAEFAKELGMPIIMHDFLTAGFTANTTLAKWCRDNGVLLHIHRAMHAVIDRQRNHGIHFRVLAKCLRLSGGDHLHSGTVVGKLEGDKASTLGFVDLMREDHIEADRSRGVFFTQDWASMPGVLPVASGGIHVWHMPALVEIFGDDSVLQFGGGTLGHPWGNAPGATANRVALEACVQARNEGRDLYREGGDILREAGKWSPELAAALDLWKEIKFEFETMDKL
As to the kind of experiment: cryo-EM structure; RbcL-Raf1 supercomplex co-expressed with GroES/EL in E. coli, purified by Ni-IMAC and Superdex 200; 1.2 mg/mL on Quantifoil grids; 200 kV Tecnai F20; 16,022 particles; 4.28 Å; both purified. As to conditions: remark: other sources report otherwise.

With “Rubisco large subunit RbcL, endogenous in Synechococcus elongatus PCC7942 (from UniProt Q31NB3 1-472)”, the binding entry in test [1] is on record as “binds”.

B1: Rubisco small subunit RbcS, endogenous in Synechococcus elongatus PCC7942 (protein, UniProt Q31NB2 1-111)
chain: MSMKTLPKERRFETFSYLPPLSDRQIAAQIEYMIEQGFHPLIEFNEHSNPEEFYWTMWKLPLFDCKSPQQVLDEVRECRSEYGDCYIRVAGFDNIKQCQTVSFIVHRPGRY
In the case of B1, the binding entry in test [1] is on record as “binds”.

B2: Rubisco accumulation factor 1 (Raf1) (Synechococcus elongatus PCC7942), recombinant (natural protein, UniProt Q31Q05 1-356, looked up)
chain: MREFTPTTLSEEERQELLGQLRRKEGRWLAWARACQTLLKNGLNPQTLFEATGFEPIQQNQITVAMQVYDSILRQDPPAHVRETYQEWGSDLLYELRELDQEQRSLCAQLALERKLDADQIREVAKATKDFCRLPKQPENFDRHPGDAVAHQCWRLAQERTDLTERSRLIARGLQFAQSAGARALIEALLLDLSGVPSRKPPMLPIYRLETEEDLPRLLPFAGTLPLSSSQIEAIAAVEAEGPFGLVSSPQGQQWLALPGWQAILTAEDPIACLEQIDRLPNAPEGPTEAVVLVVDRADRDWDADHFFLVEQAEGARIQWSPSAIAAPILGRLVLILRPKRVLDEAAIATPWQFEE
notes: Raf1, Rubisco accumulation (assembly) factor 1, Synechococcus elongatus PCC7942, gene synpcc7942_0833 amplified from genomic DNA; N-terminal α-helical domain (Raf1α), flexible linker, C-terminal β-sheet dimerization domain (Raf1β); Only the Raf1α domains are modelled in PDB 6SMH; Raf1β could not be resolved; Four Raf1 dimers (eight chains) sit on one RbcL8 core; also called Rubisco assembly …
Consider B2, for which the binding result in test [2] is given as “binds”.
